In the supplement of paper PMC5949888:
Most values lie at the floor of the assay. Slopes are relative: functional sequences can read slightly below zero.

test system: Saccharomyces cerevisiae PS128 hsf1 delta, HSF1(1-493) fusion; assay: growth estimate (transactivation domain function in HSF1 fusion, heat-shock survival) (a.u. (slope of normalised read count over time)); higher = stronger growth at 37°C, i.e. more transactivation activity; conditions: library: random library
Experimental: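 Random 60-nt DNA library encoding peptides of up to 20 aa, fused to the C-terminus of yeast HSF1 residues 1-493 (C-terminal TAD deleted) and expressed from the native HSF1 promoter on a CEN plasmid in hsf1-deleted S. cerevisiae PS128. Cells were selected at 37°C on -trp 5-FOA plates for 0, 2, 4, 6 and 8 days and amplicons were sequenced. Growth estimate is the slope of a robust linear fit of total-sum-normalised read counts (normalised to the first time point) over time, using at least 2 replicates. Sequences are classed functional (TAD activity) above a threshold of -0.13, set from stop-codon control sequences.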

| Substance | growth estimate |
| --- | --- |
| AHYGSNNHVRYNKLSRASQW | < -0.25 |
| WSVGCGGHCSIRQ | < -0.25 |
| REEAHRAKVGTRQTRSCSDY | < -0.25 |
| TVFERSERNASTVKSVALSP | < -0.25 |
| SLGSKGRIRRMDFQRVRRSR | < -0.25 |
| GHMSTSLVGRRGLRRL | < -0.25 |
| GTGPHRMCSPIGLLVRIGVL | < -0.25 |
| LRGGC | < -0.25 |
| IGDVLQG | < -0.25 |
| WVASRCRGCLIDQV | < -0.25 |
| LACSKNARVCVVV | < -0.25 |
| AGCVSPQGE | < -0.25 |
| YETYAT | < -0.25 |
| GTLYRWSVPLGEHT | < -0.25 |
| MVWHVVVLDTHEHLASSDIS | < -0.25 |
| RRAIVKAHVASRVLGKHHPG | < -0.25 |
| GPLQRL | -0.246 |
| GRCPDYLQEQLAY | < -0.25 |
| PSSII | -0.248 |
| LIFMGPEESIKKSSMVSTIR | < -0.25 |
| KRGASKLQWARVRQPCRQIK | < -0.25 |
| GVATLVGANKSLCLNYTGFA | < -0.25 |
| SHCHDRSGGIIGVAPSTSRA | < -0.25 |
| WLTTEVDGER | -0.243 |
| RYKIS | < -0.25 |
| VWEF | < -0.25 |
| LWHALQLARNSGWSICC | < -0.25 |

| Substance | growth estimate |
| --- | --- |
| EGRFPVRTW | < -0.25 |
| WPNLQESAPRDVRLLGPPDT | < -0.25 |
| GLLCPMVYRDTSRPGRDPCM | < -0.25 |
| ARAGEYVKK | < -0.25 |
| VGGFDDMQKPASFGASMSRY | < -0.25 |
| CQP | < -0.25 |
| GHERWPL | < -0.25 |
| LSHILSLYNTLTGGRGRGTF | < -0.25 |
| IPGIKLCCAEQLM | < -0.25 |
| KGMAEGFHRSCCTQRLGGAK | < -0.25 |
| FPCDERC | < -0.25 |
| PAKHKTRCYACWQKCVALVR | < -0.25 |
| TGFTVILRLGL | < -0.25 |
| YPVRFRS | < -0.25 |
| FCRISESGRLATTSSWLVRA | < -0.25 |
| FLASLYNPFVAVYHPNGNPG | < -0.25 |
| GCAPVSLPAILALYQSVLAH | < -0.25 |
| SSRGTALQEHR | < -0.25 |
| FRLG | < -0.25 |
| PEQKPRGRERNRCASGLATE | < -0.25 |
| NLATRSHNA | < -0.25 |
| RNRICGISQKICYLIAYNAD | < -0.25 |
| NYTVIFRSMSDKSRAYRS | < -0.25 |
| RKRCVTIPYNDRSDLWRLPI | < -0.25 |
| LHKGSEHRNANHQGQATSRG | < -0.25 |
| ESPLDLITRSAGAACGWGTA | < -0.25 |
| ICDSPTICPTVVVFCAASSR | < -0.25 |

| Substance | growth estimate |
| --- | --- |
| LLDQDGKAVWSAVRYAETHH | < -0.25 |
| RGLRE | -0.126 |
| LNWGFG | < -0.25 |
| LLL | < -0.25 |
| RIWSGRRTDAILVYGSRTTA | < -0.25 |
| TLEANGRAVLVAGRFEALTP | < -0.25 |
| ECYVLVFKGTY | < -0.25 |
| ILKLTITMERAVTWVSVARR | < -0.25 |
| AGFVEGYNYSVIGSRVACSG | < -0.25 |
| SSIICSIDPSDVGWNVPRAS | < -0.25 |
| ASLGRFWATLMDLMPNRWHI | < -0.25 |
| VIGSFTGSARRDLVHRH | < -0.25 |
| GCW | < -0.25 |
| VSIGVHS | < -0.25 |
| IMRTFMGTIGSTTRPKVNIG | < -0.25 |
| ISCPKRSNVYF | < -0.25 |
| RSVTTPVRQRCAKGIRRRAL | < -0.25 |
| NVFADSFRET | < -0.25 |
| LTPRLTTYRESDLLREIKIV | < -0.25 |
| VMVAAPLRYRAAPQSYAAFS | < -0.25 |
| SWDEGYRLEATGMNYWILHL | < -0.25 |
| TTTNV | < -0.25 |
| LFVDAT | < -0.25 |
| LQIWASFSGRSAWRR | < -0.25 |
| RSTMSQHIPYLFGRISSQEE | < -0.25 |
| SSTDEYNSEHSGRGIAECVW | < -0.25 |

In another format: results already given.
PAKHKTRCYACWQKCVALVR
  growth estimate = < -0.25
ILKLTITMERAVTWVSVARR
  growth estimate = < -0.25
